# Assay results as given in the supplement of paper PMC10735217.
# “And” between values parts separate entries of the source, which are not always exact repeats. Equal entries are not always repeated. This is one part of the list. Repeats in this data set agree poorly, so a single value says little.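 In a drug-repurposing library screen, luminescence reads luciferase driven by eight TEAD-binding elements, stably integrated into human kidney-derived cells. Compounds scoring over five robust Z scores above the plate mean are called hits.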
# Tested on: HEK293A TEAD-LUC reporter
# Assay: TEAD-luciferase reporter activity (YAP activation), robust Z score vs plate; higher = stronger YAP/TEAD activation
# Conditions: 24 h
SMILES,TEAD-luciferase reporter activity (compound concentration: 200 nM),TEAD-luciferase reporter activity (compound concentration: 2 uM),TEAD-luciferase reporter activity (compound concentration: 10 uM)
COc1ccc2c(c1)OC(C)(C)[C@H](c1ccccc1)[C@H]2c1ccc(OCCN2CCCC2)cc1,inactive: -1.85,inactive: 1.33,inactive: 0.248
CN(C)CCCN1c2ccccc2C=Cc2ccccc21,inactive: -1.11,inactive: 0.537,inactive: 2.51
OCC(CO)(CCl)CCl,inactive: 1.2,inactive: -0.459,inactive: 0.794
Fc1ccc2c(CCNCc3cccc(OCC(F)(F)C(F)(F)F)c3)c[nH]c2c1,inactive: -0.0352,,inactive: 1.29
"CN1CCCC1c1cccnc1 (configuration not stated) [nicotine, Neuraltus]",inactive: -0.999,inactive: 2.15,inactive: -0.989
CNC(=O)c1cnn(-c2nc(N)c3ncn([C@@H]4O[C@H](CO)C(O)C4O)c3n2)c1 (some centres not stated),inactive: 0.256,inactive: 1.63,inactive: 3.9
CC(C)COCC(CN(Cc1ccccc1)c1ccccc1)N1CCCC1 (configuration not stated) [bepridil],inactive: 0.845,inactive: 2.9,inactive: 4.13
CC(=O)c1cc(C)cc(C)c1NC(=O)c1sccc1S(=O)(=O)Nc1onc(C)c1C,inactive: -1.53,inactive: 1.42,inactive: -1.18
O=C([O-])[C@H](O)[C@@H](O)[C@H](O)[C@H](O)CO,inactive: -1.25,,inactive: -0.673
O=C([O-])[C@H](O)[C@@H](O)[C@H](O)[C@H](O)CO [Zinc gluconate],,inactive: -1.37,
COCCOCCNCC1COc2ccccc2O1 (configuration not stated),inactive: -0.899,inactive: 1.84,inactive: -0.675
C=CCN(/C=C1\C(=O)O[C@H](COC)[C@@]2(C)C1=C(O)C(=O)C1=C2[C@H](OC(C)=O)C[C@]2(C)C(=O)CC[C@@H]12)CC=C [Sonolisib],inactive: 0.552,inactive: -1.14,inactive: -1.24
CC(C)(C)NCC(O)CSc1nc(-c2ccc(C(N)=O)s2)cs1 (configuration not stated) [arotinolol],inactive: -2.02,inactive: -1.14,inactive: 0.166
Oc1ccc2c(c1)OC[C@H](c1ccccc1)[C@@H]2c1ccc(OCCN2CCCC2)cc1,inactive: 2.31,inactive: -0.212,inactive: -1.16
CCCCCCCCCCCCCCCC(=O)OCC(=O)[C@@]1(O)[C@H](C)C[C@H]2[C@@H]3CCC4=CC(=O)C=CC4(C)[C@@]3(F)[C@@H](O)CC21C (some centres not stated) [Dexamethasone 21-Palmitate],inactive: -1.88,inactive: -0.543,inactive: 0.432
COc1c(N2CCC[C@H](N)C2)ccc2c(=O)c(C(=O)O)cn(C3CC3)c12,inactive: -0.749,inactive: -0.229,inactive: -0.617
CCCCCCCCCCCCCCCC(=O)OCC(NC(=O)C(Cl)Cl)C(O)c1ccc([N+](=O)[O-])cc1 (configuration not stated),inactive: 1.95,inactive: -1.09,inactive: -0.201
CC(=O)NCCOC(=O)C(Oc1cccc(C(F)(F)F)c1)c1ccc(Cl)cc1 (configuration not stated),inactive: -0.463,inactive: -0.797,inactive: 1.51
CCOP(=O)(OCC)c1ccc(-c2nc(N)sc2C(=O)C(C)(C)C)o1,inactive: -0.874,inactive: -1.77,inactive: 1.22
CNCCSC1=Cc2ccccc2Oc2ccc(F)cc21 [fluradoline],inactive: 0.769,inactive: 0.458,active: 7.11
CN1CCC(=C2c3ccccc3Oc3ccc(Cl)cc32)CC1 [clopipazan],inactive: -0.693,inactive: 0.524,inactive: 0.313
CC(C)[C@H](N)C(=O)N[C@@H](Cc1cnc[nH]1)C(=O)N[C@H](C(=O)N[C@@H](CC(N)=O)C(=O)O)[C@@H](C)O,,inactive: -0.592 and inactive: -1.05,inactive: -1.42 and inactive: 2.65
O=C(CO)NCCCOc1cccc(CN2CCCCC2)c1,inactive: -0.61,inactive: -0.236,inactive: -1.54
C/C(=C(\CCOC(=O)c1ccccc1)SC(=O)c1ccccc1)N(C=O)Cc1cnc(C)nc1N [Dibenzoyl Thiamine],inactive: -1.83,inactive: -0.0567,inactive: -0.679
CCSC(=O)c1cccc(C(=O)SCC)c1,inactive: -1.9,inactive: -1.59,inactive: 0.0813
CCN(CC)c1ccc(S(=O)(=O)N2CCOCC2)cc1NC1=Nc2cccc3cccc1c23,inactive: 0.919,inactive: -0.787,inactive: 1.82
CC(=O)N[C@@H](CC(C)C)C(=O)O [Tanganil],inactive: 0.728,inactive: -1.13,inactive: -0.0822
CC(C)=CC(=O)NS(=O)(=O)c1ccc(N)cc1,inactive: -0.876,inactive: -1.31,inactive: -1.08

SMILES,TEAD-luciferase reporter activity (compound concentration: 200 nM),TEAD-luciferase reporter activity (compound concentration: 2 uM),TEAD-luciferase reporter activity (compound concentration: 10 uM)
CC(C)=CCOc1cc(NC(=O)c2ccoc2)ccc1Cl,inactive: 0.482,inactive: 0.0808,inactive: 0.492
COc1cc(COc2cc(N)c(Cl)cc2C(=O)CCC2CCN(CCNS(C)(=O)=O)CC2)cc(OC)c1,inactive: 3.93,inactive: -1.48,inactive: 0.29
Nc1c(Cl)cc(C(O)CNCCCCCCOCCc2ccccn2)cc1Cl (configuration not stated) [Picumeterol],inactive: -0.838,inactive: -0.351,inactive: 0.117
CN1CCN(CC(=O)N2c3ccccc3C(=O)Nc3cccnc32)CC1 [pirenzepine],inactive: -0.65,inactive: 1.28,inactive: -0.0662
CCC(CC)NC(=O)c1cnc2cc(C)nn2c1,inactive: 0.155,,inactive: -0.725
Cc1ccc(OC(C)(C)[C@@H]2OC[C@@H](C/C=C\CCC(=O)O)[C@H](c3cccnc3)O2)c([N+](=O)[O-])c1,inactive: -0.62,inactive: -0.098,inactive: -0.299
C1OC1CN1CCC(C2CCN(CC3CO3)CC2)CC1 (configuration not stated),inactive: -1.48,inactive: 0.0757,inactive: 0.882
O=C(OCCO)c1ccccc1O,inactive: -1.23,inactive: -1.65,inactive: 0.317
CN1CCN(c2ccc(OC(F)(F)F)c(Nc3ncc4c(n3)-c3c(c(C(N)=O)nn3CCO)CC4)c2)CC1,inactive: -3.33,inactive: -0.911,inactive: 3.98
Clc1ccc(Nc2nnc(Cc3ccncc3)c3ccccc23)cc1 [Vatalanib succinate],inactive: -1.21,inactive: -1.18,active: 7.83
CCOC(CN1CCN(CC(C)C(=O)c2ccccc2)CC1)c1ccccc1 (configuration not stated),inactive: 0.314,inactive: -1.19,inactive: -0.848
O=C1NC2(Cc3ccccc31)CN(CC1CCCC1)C2,active: 5.53,,inactive: -0.486
Nc1ccc(S(=O)(=O)Nc2cccc3c(Cl)c[nH]c23)cn1,inactive: 0.118,inactive: 2.69,inactive: 2.73
CC1CN(C(=O)CC#N)C12CCCN(c1ncnc3[nH]ccc13)C2 (configuration not stated) [mistaken for JTE-052],inactive: -0.383,inactive: 0.7,inactive: -0.179
NC1=NC(=O)N([C@H]2C[C@@H](O)[C@@H](CO)O2)CN1,inactive: -0.371,inactive: -0.165,inactive: 0.557
CC(C)(C)NCC(O)c1ccc(CO)c(O)c1 (configuration not stated) [salbutamol],,inactive: -0.374,
CC(CN(C)C)Oc1cccc(Br)c1-c1cc2c(c3c1C(=O)N(C)C3=O)c1ccccc1n2C (configuration not stated),inactive: -0.309,inactive: 0.177,inactive: 1.92
O=C(O)c1ccc(CCCC2SCC(=O)N2CCC2(O)CCCCC2)cc1 (configuration not stated),inactive: -1.88,inactive: 0.491,inactive: 2.22
O=C(Oc1ccccc1C(=O)O)c1ccccc1O [Salsalate],inactive: 0.617,inactive: 0.366,inactive: 0.988
CC(C)S(=O)(=O)N[C@H]1CC[C@H](CNc2nc(-c3ccccn3)cs2)CC1,inactive: 3.36,inactive: -0.746,inactive: -0.751
O=C(NC(=O)c1ccccc1[N+](=O)[O-])Nc1ccc(Oc2ncc(Br)cn2)c(Cl)c1,inactive: -1.35,inactive: 2.85,inactive: 2.69
CC[C@H](C)C1NC(=O)[C@H](CCCNC(=N)N)NC(=O)C(CC(=O)O)NC(=O)C(CCSC)NC(=O)C(CCCNC(=N)N)NC(=O)CNC(=O)CNC(=O)[C@H](Cc2ccccc2)NC(=O)C(NC(=O)[C@H](CO)NC(=O)[C@H](CO)NC(=O)[C@@H](N)CCCNC(=N)N)CSSC[C@@H](C(=O)N[C@@H](CC(N)=O)C(=O)N[C@@H](CO)C(=O)N[C@@H](Cc2ccccc2)C(=O)N[C@@H](CCCNC(=N)N)C(=O)N[C@@H](Cc2ccc(O)cc2)C(=O)O)NC(=O)CNC(=O)C(CC(C)C)NC(=O)CNC(=O)C(CO)NC(=O)[C@H](CCC(N)=O)NC(=O)[C@H](C)NC(=O)CNC1=O (some centres not stated) [Anaritide],inactive: -0.305,,inactive: 0.0158
COc1ccccc1N1CCN(CC(O)c2ccc(F)cc2)CC1 (configuration not stated),inactive: -0.694,inactive: 0.757,inactive: 1.08
O=c1[nH]c(=O)n([C@H]2C[C@H](F)[C@@H](CO)O2)cc1Cl,inactive: -0.654,inactive: -0.678,inactive: 3.33
COc1nc(C)nc(Cl)c1NC1=NCCN1,inactive: 1.1,,inactive: -0.929
COc1nc(C)nc(Cl)c1NC1=NCCN1 [moxonidine],,inactive: 0.344,
COc1cc(C(C)C)ccc(CN2CCCN(C(c3ccc(F)cc3)c3ccc(F)cc3)CC2)c1=O,inactive: -0.965,inactive: -1.26,inactive: 0.939

# As a working copy, part of the list above:
SMILES,TEAD-luciferase reporter activity (compound concentration: 200 nM),TEAD-luciferase reporter activity (compound concentration: 2 uM),TEAD-luciferase reporter activity (compound concentration: 10 uM)
CC(CN(C)C)Oc1cccc(Br)c1-c1cc2c(c3c1C(=O)N(C)C3=O)c1ccccc1n2C (configuration not stated),inactive: -0.309,inactive: 0.177,inactive: 1.92
O=C(O)c1ccc(CCCC2SCC(=O)N2CCC2(O)CCCCC2)cc1 (configuration not stated),inactive: -1.88,inactive: 0.491,inactive: 2.22
O=C(Oc1ccccc1C(=O)O)c1ccccc1O [Salsalate],inactive: 0.617,inactive: 0.366,inactive: 0.988
CC(C)S(=O)(=O)N[C@H]1CC[C@H](CNc2nc(-c3ccccn3)cs2)CC1,inactive: 3.36,inactive: -0.746,inactive: -0.751
O=C(NC(=O)c1ccccc1[N+](=O)[O-])Nc1ccc(Oc2ncc(Br)cn2)c(Cl)c1,inactive: -1.35,inactive: 2.85,inactive: 2.69
CC[C@H](C)C1NC(=O)[C@H](CCCNC(=N)N)NC(=O)C(CC(=O)O)NC(=O)C(CCSC)NC(=O)C(CCCNC(=N)N)NC(=O)CNC(=O)CNC(=O)[C@H](Cc2ccccc2)NC(=O)C(NC(=O)[C@H](CO)NC(=O)[C@H](CO)NC(=O)[C@@H](N)CCCNC(=N)N)CSSC[C@@H](C(=O)N[C@@H](CC(N)=O)C(=O)N[C@@H](CO)C(=O)N[C@@H](Cc2ccccc2)C(=O)N[C@@H](CCCNC(=N)N)C(=O)N[C@@H](Cc2ccc(O)cc2)C(=O)O)NC(=O)CNC(=O)C(CC(C)C)NC(=O)CNC(=O)C(CO)NC(=O)[C@H](CCC(N)=O)NC(=O)[C@H](C)NC(=O)CNC1=O (some centres not stated) [Anaritide],inactive: -0.305,,inactive: 0.0158
COc1ccccc1N1CCN(CC(O)c2ccc(F)cc2)CC1 (configuration not stated),inactive: -0.694,inactive: 0.757,inactive: 1.08
O=c1[nH]c(=O)n([C@H]2C[C@H](F)[C@@H](CO)O2)cc1Cl,inactive: -0.654,inactive: -0.678,inactive: 3.33
COc1nc(C)nc(Cl)c1NC1=NCCN1,inactive: 1.1,,inactive: -0.929
COc1nc(C)nc(Cl)c1NC1=NCCN1 [moxonidine],,inactive: 0.344,
COc1cc(C(C)C)ccc(CN2CCCN(C(c3ccc(F)cc3)c3ccc(F)cc3)CC2)c1=O,inactive: -0.965,inactive: -1.26,inactive: 0.939
